Source: paper PMC7819943, “Rice protein-binding microarrays: a tool to detect cis-acting elements near promoter regions in rice”
This is one part of the list.

Target: T1, OsSMF1 (Oryza sativa, UniProt Q6ZLB0 1-436)
T1 sequence: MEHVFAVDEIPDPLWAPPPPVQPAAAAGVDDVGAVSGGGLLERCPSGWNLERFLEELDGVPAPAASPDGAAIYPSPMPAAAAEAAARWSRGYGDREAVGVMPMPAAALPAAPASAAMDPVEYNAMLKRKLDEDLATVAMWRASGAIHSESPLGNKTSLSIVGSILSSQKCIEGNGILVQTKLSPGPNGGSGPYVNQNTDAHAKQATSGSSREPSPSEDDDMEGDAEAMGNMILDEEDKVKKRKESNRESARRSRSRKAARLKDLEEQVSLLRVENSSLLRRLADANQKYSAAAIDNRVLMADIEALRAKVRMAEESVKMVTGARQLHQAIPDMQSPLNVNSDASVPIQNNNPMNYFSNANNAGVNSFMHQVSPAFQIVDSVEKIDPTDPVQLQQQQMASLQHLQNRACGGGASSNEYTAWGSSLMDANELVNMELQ
Test: protein-binding microarray (RPBM); PBS, 2% BSA, 51.3 ng/ul salmon testes DNA, 50 uM zinc acetate, 200 nM TF, 25 C, 1 h; high values mean tight binding
Conditions: protein: recombinant; tags: N-terminal polyhistidine and DsRed monomer fusion (pET32a); chain copies: 2; label: CyDye5-dUTP incorporated in the synthesized complementary strand; 3' TTTTT single-stranded linker to array surface; dsDNA, one strand shown
In short: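 Per-feature fluorescence intensity (arbitrary units), read on an Axon 4000B scanner, is the binding signal. Transcription factors carrying an N-terminal polyhistidine tag and DsRed fusion were expressed in E. coli BL21-CodonPlus and purified on Ni–NTA. A custom Agilent array, made double-stranded by primer extension with Cy5-dUTP and blocked with 2% BSA, was incubated with 200 nM protein in PBS, 2% BSA, salmon testes DNA and 50 µM zinc acetate at 25 °C for 1 h and then washed.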

**Q.** “TAGGATGAAATTAGCCCATCAGGTATTACGTGTGGGCCGTCGGAGTCACCTAGTGCAG” was tested. Which binding signal did it give?
**A.** 3400 fluorescence intensity (a.u.)

**Q.** “GCAAATCCCGCGCACATGACGCGCTGATGAGTGATGACACCGGAGTCACCTAGTGCAG” was tested. Which binding signal did it give?
**A.** 3170 fluorescence intensity (a.u.)

**Q.** “GCCCGCGAGTCCACGACGCCCACCACACCGCACACACAGACGGAGTCACCTAGTGCAG” was tested. Which binding signal did it give?
**A.** 3880 fluorescence intensity (a.u.)

**Q.** Which binding signal does the source give for “TAACTGTATCTGTGTTATGAAACTTTGAATGACATCACTGCGGAGTCACCTAGTGCAG” here?
**A.** 4310 fluorescence intensity (a.u.)

**Q.** How did the binding signal turn out when “GACGTGGAGCAGCCGCCGGTTGTTGCTCTTGGCCCAAGTGCGGAGTCACCTAGTGCAG” was run?
**A.** 14900 fluorescence intensity (a.u.)

**Q.** How did the binding signal turn out when “GGCCGTATACGTGCCTCGGCCTCAGTCTTAGCTGAACTGGCGGAGTCACCTAGTGCAG” was run?
**A.** 25000 fluorescence intensity (a.u.)

**Q.** “AATAGTCTGCTATTGTACCTGCTCTGAACTGTTGCCCATTCGGAGTCACCTAGTGCAG” was tested. Which binding signal did it give?
**A.** 3240 fluorescence intensity (a.u.)

**Q.** With “TAGCGGCCACATGCTTAAGAAGTCACGTTGCACCGTGCCACGGAGTCACCTAGTGCAG” as the sequence, how does the binding signal read?
**A.** 3570 fluorescence intensity (a.u.)

**Q.** Which binding signal does the source give for “CGAATTCCTCGAGTCCACCGTGGACCGGGCCCATGCACCGCGGAGTCACCTAGTGCAG” here?
**A.** 5490 fluorescence intensity (a.u.)

**Q.** For “GATAATGCATATGATTGACGTCGTGTTTATCTGATGTTAGCGGAGTCACCTAGTGCAG”, which binding signal is on record?
**A.** 3710 fluorescence intensity (a.u.)

**Q.** For “GTTAAATCTAGTATGAAACATATTGAGTCATCTATCATAGCGGAGTCACCTAGTGCAG”, which binding signal is on record?
**A.** 4620 fluorescence intensity (a.u.)

**Q.** Which binding signal does the source give for “AATAAGCCCTAGTGACCTAGGACGACGGAGACTCCACCCACGGAGTCACCTAGTGCAG” here?
**A.** 3390 fluorescence intensity (a.u.)

**Q.** How did the binding signal turn out when “AATATATGATGAAAAGGTAAATGATGACGTGGAATAATAACGGAGTCACCTAGTGCAG” was run?
**A.** 9040 fluorescence intensity (a.u.)

**Q.** “TGTTTCAAGCTAAGACTGAGCTAGTTTCATGTTTCAAACACGGAGTCACCTAGTGCAG” was tested. Which binding signal did it give?
**A.** 37700 fluorescence intensity (a.u.)

**Q.** Which binding signal does the source give for “TTCCCTTCTCACCACCTCCAAGTACGCTTTGCGGGACACTCGGAGTCACCTAGTGCAG” here?
**A.** 4480 fluorescence intensity (a.u.)

**Q.** How did the binding signal turn out when “TCTCTGCTGGAATCTGAAGAAAATCGTCATCTGAATCACGCGGAGTCACCTAGTGCAG” was run?
**A.** 3610 fluorescence intensity (a.u.)

**Q.** How did the binding signal turn out when “CTCGTTCACTGAGACTCAGAGAGTGAGGTGACTTGAGGCGCGGAGTCACCTAGTGCAG” was run?
**A.** 3770 fluorescence intensity (a.u.)

**Q.** Which binding signal does the source give for “GATACGCAAAACGAGGTGAGTCATTAGCGTATAATTAATTCGGAGTCACCTAGTGCAG” here?
**A.** 8280 fluorescence intensity (a.u.)

**Q.** Which binding signal does the source give for “CCACGCGCCGCAACTAGAAAAGTGATGATTCGGAGGTGGACGGAGTCACCTAGTGCAG” here?
**A.** 24400 fluorescence intensity (a.u.)

**Q.** With “AGGGCCAGCCACGCACGCACGCACGCCACCGCGCTCCATTCGGAGTCACCTAGTGCAG” as the sequence, how does the binding signal read?
**A.** 7130 fluorescence intensity (a.u.)

**Q.** Which binding signal does the source give for “ACTAGTGAATTTCTGGGCGTGACAGTGATCCACATGTCAACGGAGTCACCTAGTGCAG” here?
**A.** 4730 fluorescence intensity (a.u.)

**Q.** “GTCACGGCTGCTTTATCGAGCCGTCCCGTGCCGTGCCGGACGGAGTCACCTAGTGCAG” was tested. Which binding signal did it give?
**A.** 17000 fluorescence intensity (a.u.)

**Q.** Which binding signal does the source give for “TGCTGATGTTGCTGCTAAAATTGCACCATTGTTGTGTAACCGGAGTCACCTAGTGCAG” here?
**A.** 40700 fluorescence intensity (a.u.)

**Q.** With “AAAGAAAACATTAGAGAGTCAAAACACAAATTAACCCGGCCGGAGTCACCTAGTGCAG” as the sequence, how does the binding signal read?
**A.** 32300 fluorescence intensity (a.u.)

**Q.** Which binding signal does the source give for “AGAGGGAGGAGTTGAGTAACTGACACGTGGCCTAAATTTTCGGAGTCACCTAGTGCAG” here?
**A.** 14500 fluorescence intensity (a.u.)

**Q.** Which binding signal does the source give for “ATGAAGAGGACGCATGCAAAACGCGCCAACTCCCAACTGCCGGAGTCACCTAGTGCAG” here?
**A.** 25800 fluorescence intensity (a.u.)

**Q.** How did the binding signal turn out when “CCCTACTCCGGCGGTGGGTGACGTCACTTTATTTGGATTTCGGAGTCACCTAGTGCAG” was run?
**A.** 23500 fluorescence intensity (a.u.)

**Q.** Which binding signal does the source give for “ACAAACCATTTTGCTGTTTGTTTACACGTCAAACTCGTCGCGGAGTCACCTAGTGCAG” here?
**A.** 6650 fluorescence intensity (a.u.)

**Q.** For “TCAGCGGCAGCCCACCCGACTGGGCCGGTCATCGGCGCCACGGAGTCACCTAGTGCAG”, which binding signal is on record?
**A.** 3470 fluorescence intensity (a.u.)

**Q.** With “AACCTCCATCTCCCGCCCAGTGCCGCCGCGCCACGTCACCCGGAGTCACCTAGTGCAG” as the sequence, how does the binding signal read?
**A.** 39100 fluorescence intensity (a.u.)

**Q.** “TGGCAGGCCACTACTCCTCCACGTGGCCGTGTGGCGTGGGCGGAGTCACCTAGTGCAG” was tested. Which binding signal did it give?
**A.** 12200 fluorescence intensity (a.u.)

**Q.** Which binding signal does the source give for “CAGCACAGATGTCACTAATCAATGTCATCATCCTCGCCTACGGAGTCACCTAGTGCAG” here?
**A.** 3660 fluorescence intensity (a.u.)

**Q.** With “CTGTGCACACGTGCACTGCAAGCTTACCGCACGCATCCAACGGAGTCACCTAGTGCAG” as the sequence, how does the binding signal read?
**A.** 3660 fluorescence intensity (a.u.)

**Q.** How did the binding signal turn out when “CAACTCCTACGACACGGTACGGATGACGTTGCATCAAATGCGGAGTCACCTAGTGCAG” was run?
**A.** 4220 fluorescence intensity (a.u.)

**Q.** With “AAGACATGTGGGCCCACACACGTCGACTCAGCCAGTTGGACGGAGTCACCTAGTGCAG” as the sequence, how does the binding signal read?
**A.** 3300 fluorescence intensity (a.u.)

**Q.** With “GCGTTTAGATCCTTGGCAATGGGGATTTTAGCCTTGCATACGGAGTCACCTAGTGCAG” as the sequence, how does the binding signal read?
**A.** 16400 fluorescence intensity (a.u.)

**Q.** With “ATTAAGATCTGAAAATTAGCACACATGACACATCCCATTACGGAGTCACCTAGTGCAG” as the sequence, how does the binding signal read?
**A.** 3950 fluorescence intensity (a.u.)

**Q.** With “GCAAATAATGCGTCTCTTTTCTCTCATCATAGCCTTTCGACGGAGTCACCTAGTGCAG” as the sequence, how does the binding signal read?
**A.** 3460 fluorescence intensity (a.u.)

**Q.** How did the binding signal turn out when “GAGGGCGGAGGAGGTGGTGAGGGAGGAGGTGCGGAGGCTGCGGAGTCACCTAGTGCAG” was run?
**A.** 4950 fluorescence intensity (a.u.)

**Q.** Which binding signal does the source give for “TTCTTCTTGTATCGGCCAGTCGAGTCAGCAGAGATCGAGACGGAGTCACCTAGTGCAG” here?
**A.** 6020 fluorescence intensity (a.u.)

**Q.** Which binding signal does the source give for “TCCGTCTCGCCTCGTCACCTCACCTCGGCATCACCCAGGTCGGAGTCACCTAGTGCAG” here?
**A.** 10800 fluorescence intensity (a.u.)

**Q.** For “AGACGATCTCATGACATTAATTTGACCATCATTAGGCCTACGGAGTCACCTAGTGCAG”, which binding signal is on record?
**A.** 3180 fluorescence intensity (a.u.)
